From patent US9770026B2, “Substituted pyrimidine compound and uses thereof” (Shenyang Sinochem Agrochemicals R&D Co., Ltd., priority 2012, dated 2017)
Some of these results come from one statement about several compounds together. Some compounds share one range, which may span the group rather than tell each member.

Experiments:
[1] = test system: wheat powdery mildew; experiment: protectant activity in vivo against wheat powdery mildew; settings: 100 ppm
[2] = test system: rice blast; type: cell-based; settings: 25 ppm, in vitro
[3] = test system: cucumber gray mold; experiment: fungicidal activity in vitro (inhibition rate) against cucumber gray mold; type: cell-based; settings: 25 ppm
[4] = test system: corn rust; experiment: protectant activity in vivo against corn rust
[5] = test system: cucumber downy mildew; experiment: protectant activity in vivo against cucumber downy mildew
[6] = test system: carmine spider mite; experiment: bioactivity test against carmine spider mite, airbrush spray; type: in vivo; settings: 10 ppm, mortality after 72 hrs
Description: (§1) Compounds were dissolved in mixed solvent (acetone:methanol=1:1), and diluted to required concentration with water containing 0.1% of tween 80.
(§2) Diamond back moth, armyworm, peach aphid and carmine spider mite were used as targets and the method of spraying by airbrush was used for determination of insecticidal biassays.
The method: Broadbean shoots with two true leaves in pot were taken, the healthy adults of carmine spider mite were inoculated to the leaves. The adults were counted and then sprayed with airbrush at the pressure of 0.7 kg/cm^2 and at dose of 0.5 ml. 3 replicates were set for each treatment. And then they were maintained in standard observation room. Scores were conducted and mortalities were calculated after 72 hrs.

[7] = test system: armyworm; experiment: bioactivity test against armyworm, airbrush spray; type: in vivo; settings: mortality after 72 h
Description: as §1, §2
(§3) The method of spraying by airbrush: The corn leaves were made into plates of 2 cm diameter by use of punch. A test solution (0.5 ml) was sprayed by airbrush at the pressure of 0.7 kg/cm^2 to both sides of every plate. 10 Second instar larvae were put into the petri-dishes after the leaf disc air-dried and 3 replicates were set for each treatment. Then the insects were maintained in observation room (25 °C, 60˜70% R.H.). Scores were conducted and mortalities were calculated after 72 h.

[8] = test system: Diamond back moth; experiment: insecticidal activity against diamond back moth, airbrush spray; type: in vivo; settings: mortality after 72 hrs
Description: as §1, §2
as §3, with “The cabbage” for “The corn”, “room (25° C.,” for “room (25 °C,”, “72 hrs.” for “72 h.”

Cc1ncnc(NCCc2ccc(Oc3ccc(Cl)cc3Cl)nc2)c1Cl [III-82]
protectant activity against wheat powdery mildew in vivo [1]: 80%-99%
inhibition rate against rice blast [2]: 80%-99%
inhibition rate against cucumber gray mold [3]: 100%
protectant activity against corn rust in vivo ([4]; 100 ppm): 80%-99%
protectant activity against cucumber downy mildew in vivo ([5]; 12.5 ppm): 80%-99%

CCc1ncnc(NCCc2ccc(Oc3ccc(OC)cc3)nc2)c1Cl [III-199]
inhibition rate against rice blast [2]: 80%-99%
inhibition rate against cucumber gray mold [3]: 80%-99%
protectant activity against corn rust in vivo ([4]; 25 ppm): 80%-99%
protectant activity against corn rust in vivo ([4]; 100 ppm): 80%-99%
protectant activity against cucumber downy mildew in vivo ([5]; 25 ppm): 80%-99%
protectant activity against cucumber downy mildew in vivo ([5]; 50 ppm): 80%-99%
control against carmine spider mite [6]: 80%-99%

FC(F)c1ncnc(NCCc2ccc(Oc3ccc(Cl)cc3)nc2)c1Cl [III-547]
inhibition rate against rice blast [2]: 80%-99%
inhibition rate against cucumber gray mold [3]: 80%-99%
protectant activity against corn rust in vivo ([4]; 100 ppm): 80%-99%
control (test results against armyworm) ([7]; 10 ppm): 80%-99%

CCc1ncnc(NCCc2ccc(Oc3ccc(Cl)cc3Cl)nc2)c1Cl [III-262]
inhibition rate against rice blast [2]: 80%-99%
inhibition rate against cucumber gray mold [3]: 80%-99%
protectant activity against corn rust in vivo ([4]; 6.25 ppm): 80%-99%
control (test results against diamond back moth) ([8]; 600 ppm): 80%-99%

CCc1ncnc(NCCc2ccc(Oc3ccc(Cl)cc3)c(OC)c2)c1Cl [II-1965]
inhibition rate against rice blast [2]: 100%
inhibition rate against cucumber gray mold [3]: 100%
control (test results against diamond back moth) ([8]; 100 ppm): 80%-99%
control (test results against armyworm) ([7]; 100 ppm): 80%-99%
